{"source": "PubChem BioAssay AID1671195 – Yale University – 2021", "test": "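Genes whose knockdown alters LDL uptake in liver cancer cells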 (primary screen)", "cells": "human Huh7 hepatoma cells", "reagents": "siRNA pool against human genes, 18 nM", "duration": "about 2 to 2.5 days of knockdown, then 8 h LDL uptake", "treatment": "DiI-labelled LDL at 30 µg/ml for 8 h, in lipoprotein-deficient serum medium", "measurement": "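Fluorescent LDL signal imaged in cells, scaled to the plate median, robust z-score for each replicate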", "direction": "robust z-score: higher = more LDL uptake after knockdown", "active means": "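a gene counts as active if at least two replicate z-scores exceed ±2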", "note": "In all, the deposit lists about 22,000 reagents; shown is a part drawn at random. Over the whole deposit, about 1,510 (6.9%) got an active call. 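Active includes knockdowns raising or lowering LDL uptake; positive z-scores mean more uptake, negative mean less.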"}
{"gene": "H2BC12", "robust z-score, replicate 1": 1.96, "robust z-score, replicate 2": 1.58, "robust z-score, replicate 3": 1.63, "Call": "inactive"}
{"gene": "ATP2B3", "robust z-score, replicate 1": -1.47, "robust z-score, replicate 2": -1.44, "robust z-score, replicate 3": -1.26, "Call": "inactive"}
{"gene": "BACH2", "robust z-score, replicate 1": 1.09, "robust z-score, replicate 2": 0.91, "robust z-score, replicate 3": 2.22, "Call": "inactive"}
{"gene": "ACADSB", "robust z-score, replicate 1": 0.658, "robust z-score, replicate 2": 0.242, "robust z-score, replicate 3": 0.12, "Call": "inactive"}
{"gene": "CLDN11", "robust z-score, replicate 1": -0.218, "robust z-score, replicate 2": -0.681, "robust z-score, replicate 3": -0.477, "Call": "inactive"}
{"gene": "TM7SF3", "robust z-score, replicate 1": 0.0157, "robust z-score, replicate 2": -0.984, "robust z-score, replicate 3": 0.392, "Call": "inactive"}
{"gene": "RAD51B", "robust z-score, replicate 1": 0.981, "robust z-score, replicate 2": 1.25, "robust z-score, replicate 3": 1.67, "Call": "inactive"}
{"gene": "OXR1", "robust z-score, replicate 1": 0.196, "robust z-score, replicate 2": -0.405, "robust z-score, replicate 3": 1.33, "Call": "inactive"}
{"gene": "SLC47A1", "robust z-score, replicate 1": 1.06, "robust z-score, replicate 2": -0.347, "robust z-score, replicate 3": 0.988, "Call": "inactive"}
{"gene": "YIPF5", "robust z-score, replicate 1": -0.789, "robust z-score, replicate 2": -0.0142, "robust z-score, replicate 3": -0.0462, "Call": "inactive"}
{"gene": "H4C1", "robust z-score, replicate 1": -1.36, "robust z-score, replicate 2": -0.743, "robust z-score, replicate 3": -1.18, "Call": "inactive"}
{"gene": "PNLIPRP1", "robust z-score, replicate 1": 0.339, "robust z-score, replicate 2": 1.02, "robust z-score, replicate 3": 1.25, "Call": "inactive"}
{"gene": "LOC440291 (retired record)", "robust z-score, replicate 1": -0.195, "robust z-score, replicate 2": -0.33, "robust z-score, replicate 3": 0.254, "Call": "inactive"}
{"gene": "NPTX1", "robust z-score, replicate 1": 0.284, "robust z-score, replicate 2": -0.702, "robust z-score, replicate 3": -0.415, "Call": "inactive"}
{"gene": "SOX15", "robust z-score, replicate 1": -0.799, "robust z-score, replicate 2": -0.431, "robust z-score, replicate 3": 0.182, "Call": "inactive"}
{"gene": "ZNF333", "robust z-score, replicate 1": -0.635, "robust z-score, replicate 2": -0.71, "robust z-score, replicate 3": -1.16, "Call": "inactive"}

No new results follow: 3 of the entries above.
{"gene": "SLC47A1", "robust z-score, replicate 1": 1.06, "robust z-score, replicate 2": -0.347, "robust z-score, replicate 3": 0.988, "Call": "inactive"}
{"gene": "YIPF5", "robust z-score, replicate 1": -0.789, "robust z-score, replicate 2": -0.0142, "robust z-score, replicate 3": -0.0462, "Call": "inactive"}
{"gene": "H4C1", "robust z-score, replicate 1": -1.36, "robust z-score, replicate 2": -0.743, "robust z-score, replicate 3": -1.18, "Call": "inactive"}

The results go on.
{"gene": "TFE3", "robust z-score, replicate 1": 0.8, "robust z-score, replicate 2": 0.76, "robust z-score, replicate 3": 0.694, "Call": "inactive"}
{"gene": "RPA3P1", "robust z-score, replicate 1": 0.0445, "robust z-score, replicate 2": 0.059, "robust z-score, replicate 3": -3.18, "Call": "inactive"}
{"gene": "TEK", "robust z-score, replicate 1": -0.36, "robust z-score, replicate 2": -0.523, "robust z-score, replicate 3": -0.254, "Call": "inactive"}
{"gene": "NIT2", "robust z-score, replicate 1": -0.063, "robust z-score, replicate 2": -0.0629, "robust z-score, replicate 3": 0.183, "Call": "inactive"}
{"gene": "EPCIP", "robust z-score, replicate 1": -0.94, "robust z-score, replicate 2": -1.95, "robust z-score, replicate 3": -0.776, "Call": "inactive"}
{"gene": "LOC441643 (retired record)", "robust z-score, replicate 1": -1.15, "robust z-score, replicate 2": -0.291, "robust z-score, replicate 3": -0.742, "Call": "inactive"}
{"gene": "AUTS2", "robust z-score, replicate 1": -1.22, "robust z-score, replicate 2": -0.238, "robust z-score, replicate 3": 0.644, "Call": "inactive"}
{"gene": "TBL1XR1", "robust z-score, replicate 1": 2.15, "robust z-score, replicate 2": 1.74, "robust z-score, replicate 3": 1.33, "Call": "inactive"}
{"gene": "RHOBTB3", "robust z-score, replicate 1": 1.5, "robust z-score, replicate 2": 0.0609, "robust z-score, replicate 3": -0.73, "Call": "inactive"}
{"gene": "LAMC3", "robust z-score, replicate 1": -1.84, "robust z-score, replicate 2": -1.94, "robust z-score, replicate 3": -1.45, "Call": "inactive"}
{"gene": "FBXL6", "robust z-score, replicate 1": 0.367, "robust z-score, replicate 2": -0.767, "robust z-score, replicate 3": -0.493, "Call": "inactive"}
{"gene": "UBLCP1", "robust z-score, replicate 1": 0.0553, "robust z-score, replicate 2": 2.05, "robust z-score, replicate 3": 1.49, "Call": "inactive"}
{"gene": "GASK1B", "robust z-score, replicate 1": -0.0392, "robust z-score, replicate 2": 0.727, "robust z-score, replicate 3": -0.084, "Call": "inactive"}
{"gene": "LOC138729 (retired record)", "robust z-score, replicate 1": -1.94, "robust z-score, replicate 2": -2, "robust z-score, replicate 3": -1.93, "Call": "inactive"}
